weight lost on exposure to high humidity (95% relative humidity and 25° C. for 4 days): about 3.8%
changes in powder XRD pattern (water vapor treated sample and stability sample at 40° C./75% RH for 3 months vs control): no changes in powder XRD pattern
Structure (SMILES): CS(=O)(=O)c1ccc([C@@H](C[C@H]2CCC(=O)C2)C(=O)Nc2cnccn2)cc1Cl [IPA solvate, 2(R)-(3-Chloro-4-methanesulfonyl-phenyl)-3-((R)-3-oxo-cyclopentyl)-N-pyrazin-2-yl-propionamide]
